# Reference: PubChem BioAssay AID504834 (National Center for Advancing Translational Sciences (NCATS), 2011)
# About 22,000 (6.9%) of roughly 320,000 compounds were called active. Inconclusive means that the source gave no clear call. Such entries were picked first, then a sample of the others. The call rests on the fitted dose curve; in most records, active means well fitted inhibition curve with a large enough effect; inconclusive means small, poorly fitted or top-dose-only effect, or another doubt; inactive means no such curve, though single readings can be large or run the other way. Where the call is inconclusive, the potency comes from a doubtful curve fit.
# Test: Primary qHTS for delayed death inhibitors of the malarial parasite plastid, 96 hour incubation
# Details: P. falciparum luciferase reporter growth; series mostly up to 28.7 µM
# Method in brief: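 Parasite growth measured via integrated firefly luciferase reporter in P. falciparum. Infected erythrocytes at 2% hematocrit, 0.05% parasitemia final were treated 96 hours at 37 C under 5% CO2, and luminescence was read.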
# On the % scale 0 is the no-effect control and ±100 the full control effect; potency means the concentration at half of the fitted maximal effect.
Compound,Potency,"activity change, negative = inhibition"
COc1ccc(OC)c(-n2c(-c3cccc(O)c3)n[nH]c2=S)c1,inactive,–
CCCNC(=O)N1[C@H]2CC[C@@H]1C(C(=O)OC)=C(c1ccc(OC(F)(F)F)cc1)C2,"inconclusive: 8.28 µM [inhibitor, single point]",–
O=C(C1CCCO1)N1CCN(c2c3c(nc4cc(-c5ccc(F)cc5)nn24)CCC3)CC1 (centres undefined),"inconclusive: 11.7 µM [inhibitor, single point]",–
COc1ccc(-n2cc(CNCC3CC(=O)N(C4CC4)C3)c(-c3ccccc3Cl)n2)cc1 (centres undefined),inactive,–
NC(=O)C1CCN(C(=O)COc2ccc3c4c(c(=O)oc3c2)CCCC4)CC1,"inconclusive: 18.5 µM [inhibitor, single point]",–
O=C(O)c1cccc(S(=O)(=O)N2CCN(S(=O)(=O)c3ccc4ccccc4c3)CC2)c1,"inconclusive: 7.38 µM [inhibitor, partial curve, poor fit]",–
CCOC(=O)CC(=O)N/N=C/c1c(N)n(C)c(=O)n(C)c1=O,"inconclusive: 9.28 µM [inhibitor, single point]",–
O=[N+]([O-])c1cc(-c2nnc(C34CC5CC(CC(C5)C3)C4)o2)cc([N+](=O)[O-])c1,"inconclusive: 0.233 µM [inhibitor, full curve]",–
COc1ccc(CCNC(=O)N[C@@H](Cc2ccccc2)C(=O)O)cc1,inactive,–
NNC(=O)c1ccc(OCC2CC(c3ccc(Cl)cc3)=NO2)cc1 (centres undefined),"inconclusive: 5.22 µM [inhibitor, partial curve, poor fit]",–
CCC(=O)c1ccc(OCC(=O)N(Cc2nnc(-c3ccccc3Cl)o2)C2CC2)cc1,"inconclusive: 1.85 µM [inhibitor, full curve, poor fit]",–
COCCNC(=O)c1ccccc1NS(=O)(=O)c1ccc(C)c([N+](=O)[O-])c1,"inconclusive: 11.7 µM [inhibitor, partial curve]",–
COc1cccc(CN2CCN(Cc3ccccc3C(F)(F)F)CC2)c1,"inconclusive: 11.7 µM [inhibitor, single point]",–
COc1ccc(Cl)cc1S(=O)(=O)N1CCN(CC(=O)C(C)(C)C)CC1,"inconclusive: 0.37 µM [inhibitor, partial curve, poor fit]",–
CN(C(=O)c1nn(C)c2c1CSc1ccccc1-2)c1ccccc1Cl,inactive,–
CC(=O)c1ccc(N2C(=O)C3C4C=CC(CC4)C3C2=O)cc1 (centres undefined),"inconclusive: 10.4 µM [inhibitor, single point]",–
O=C(N/C(=C\c1ccccc1)C(=O)N1CCCCC1)c1ccc(Br)o1,inactive,–
CC1(C)NC(=O)N(CCCC(=O)Nc2ccc(C(F)(F)F)cc2)C1=O,inactive,–
COc1ccc(-c2noc(CCC(=O)NCCN(C)Cc3ccccc3)n2)cc1,inactive,–
CCc1c(C)sc(NC(=O)c2ccc(Br)o2)c1C(=O)OC,"inconclusive: 11.7 µM [inhibitor, single point]",–
O=C(CSc1nnc2ccccn12)Nc1ccc2c(c1)OCO2,inactive,–
COc1ccc(CN(C)CC(=O)N2CCc3ccccc3C2)cc1,inactive,–
CCN(c1ccccc1)S(=O)(=O)c1cnc[nH]1,"inconclusive: 4.15 µM [inhibitor, single point]",–

# Exported bar-delimited: part of the list above
Compound | Potency | activity change, negative = inhibition
CN(C(=O)c1nn(C)c2c1CSc1ccccc1-2)c1ccccc1Cl | inactive | –
CC1(C)NC(=O)N(CCCC(=O)Nc2ccc(C(F)(F)F)cc2)C1=O | inactive | –
COc1ccc(CN(C)CC(=O)N2CCc3ccccc3C2)cc1 | inactive | –
CCN(c1ccccc1)S(=O)(=O)c1cnc[nH]1 | inconclusive: 4.15 µM [inhibitor, single point] | –

# (further entries)

Compound,Potency,"activity change, negative = inhibition"
CCc1ccccc1NC(=S)N(CCN(C)C)C(C)c1cccnc1 (centres undefined),"inconclusive: 4.65 µM [inhibitor, partial curve, poor fit]",–
O=c1cccc2n1CC1CC2CN(Cc2c(F)cccc2Cl)C1 (centres undefined),active: 9.28 µM,–
CCn1nc(C)c(NS(=O)(=O)c2ccc(C)cc2)c1C,inactive,–
COc1ccc(CCNC(=O)c2ccc(CS(=O)Cc3ccc(C)cc3)o2)cc1OC (centres undefined),inactive,–
Cc1cc(OCC(=O)NC(C)C)cc(C)c1Cl,"inconclusive: 0.828 µM [inhibitor, partial curve, poor fit]",–
CCn1c(=O)cc(OCC(=O)NCCCN2CCCC2=O)c2ccccc21,"inconclusive: 16.5 µM [inhibitor, partial curve, poor fit]",–
COC(=O)c1cc(C(=O)Nn2cnnc2)cc([N+](=O)[O-])c1,"inconclusive: 13.1 µM [inhibitor, partial curve, poor fit]",–
COc1ccc(CCN2CN(S(=O)(=O)c3ccccc3)c3nc4ccccc4nc32)cc1OC,"inconclusive: 3.29 µM [inhibitor, full curve, poor fit]",–
C=CCNc1oc(Cc2cccc3ccccc23)nc1C#N,"inconclusive: 11.7 µM [inhibitor, single point]",–
OCCNC(=S)Nc1ccc(Cl)c(Cl)c1,"inconclusive: 0.0828 µM [inhibitor, full curve, poor fit]",–
CC1C(C#N)=C(N)OC2=C1C(=O)CC(C)(C)C2 (centres undefined),active: 13.1 µM,–
CN1CCN(C(=O)N2c3ccccc3C=Cc3ccccc32)CC1,"inconclusive: 10.4 µM [inhibitor, single point]",–
O=C(NCc1ccc(N2CCCC2=O)cc1)c1ccc(F)cc1,"inconclusive: 18.5 µM [inhibitor, single point]",–
Cc1ccc(-n2nc(CN3CCOCC3)c(-c3ccccc3)c2N)cc1Cl,"inconclusive: 20.8 µM [inhibitor, partial curve, poor fit]",–
Cc1cc(C)n(-c2ccc(-n3ccnc3)nn2)n1,"inconclusive: 18.5 µM [inhibitor, single point]",–
S=C(NCc1ccco1)N1CCN(c2ccc(Cl)cc2)CC1,"inconclusive: 18.5 µM [inhibitor, single point]",–
COc1cc2nc(-c3ccc(Br)o3)oc(=O)c2cc1OC,"inconclusive: 18.5 µM [inhibitor, single point]",–
CCCCn1c(/N=C/c2ccc(N(C)C)cc2)nc2ccccc21,"inconclusive: 18.5 µM [inhibitor, single point]",–
O=C(Nc1ccc(S(=O)(=O)Nc2nccs2)cc1)c1cc(-c2ccncc2)nc2ccccc12,"inconclusive: 11.7 µM [inhibitor, single point]",–
Cc1ccc(-n2ncc3c(=O)[nH]cnc32)c(C)c1,active: 14.7 µM,–
O=C1c2ccccc2C(O)N1c1cccnc1 (centres undefined),"inconclusive: 4.65 µM [inhibitor, partial curve]",–
C=CCOCCN(CC)CC,inactive,–
Cc1cc(NC(=O)COC(=O)COc2cccc3c2OC(C)(C)C3)no1,inactive,–

Compound,Potency,"activity change, negative = inhibition"
CCOC(=O)C1=C(C)Nc2ccccc2N/C1=N\S(=O)(=O)c1cc(C(=O)O)ccc1Cl,"inconclusive: 4.15 µM [inhibitor, single point]",–
O=C(CCC(=O)OCC(=O)c1ccc([N+](=O)[O-])cc1)Nc1ccccc1Cl,active: 13.1 µM,–
CCOC(=O)C(=O)c1c(C)cc2ccccn12,–,inactive: -30.4% [at 5.75 µM]
CC1=N/C(=C/c2cc(Br)cc(Br)c2O)C(=O)O1,"inconclusive: 20.8 µM [inhibitor, single point]",–
CNC(=O)O/N=C(\N)Cc1csc2ccccc12,"inconclusive: 18.5 µM [inhibitor, single point]",–
O=C(NC1CCCC1)C(c1cccs1)N(C(=O)c1csnn1)c1ccccc1F (centres undefined),"inconclusive: 18.5 µM [inhibitor, single point]",–
Nc1c2c(nc3ccc(Br)cc13)N(Cc1ccccc1)CC2,inactive,–
O=C(Cn1ncc2c3ccccc3n(Cc3cccc(Cl)c3)c2c1=O)N1CCC2(CC1)OCCO2,active: 4.65 µM,–
Cc1cccc(NC(=O)C2CCN(C(=O)N3CCOc4ccccc43)CC2)c1C,active: 14.7 µM,–
COc1cccc(OC)c1C(=O)Oc1ccc2c(c1)O/C(=C\c1ccncc1)C2=O,inactive,–
COc1cc(NC(=O)C2=C(N3CCOCC3)/C(=C\c3ccc(N(C)C)cc3)CCC2)cc(OC)c1OC,"inconclusive: 13.1 µM [inhibitor, partial curve, poor fit]",–
Cc1cccc(C)c1NC(=O)C1CCCN1S(=O)(=O)c1ccc2c(c1)n(C)c(=O)c(=O)n2C (centres undefined),"inconclusive: 18.5 µM [inhibitor, single point]",–
CCOC(=O)c1c(S(=O)(=O)NCc2ccc(OC)cc2)c(C)n(C)c1C,inactive,–
Cc1ccc(C(=O)NCCSC2CCCCC2)cc1S(=O)(=O)Nc1ccccc1,"inconclusive: 13.1 µM [inhibitor, single point]",–
COC(=O)C(Cc1ccc(O)cc1)NC(=O)CCc1nc2ccccc2s1 (centres undefined),"inconclusive: 0.0037 µM [inhibitor, full curve, poor fit]",–
CC(=O)c1ccc(S(=O)(=O)N(C)CC(=O)NCc2ccco2)cc1,inactive,–
Cc1cccc(N(Cc2ccccc2)C(=O)CN2C(=O)NC3(CCCC3)C2=O)c1,"inconclusive: 10.4 µM [inhibitor, single point]",–
COC(=O)c1ccc(NC(=O)C(=O)N2CCN(C(=S)Nc3ccc(OC)cc3)CC2)cc1,"inconclusive: 3.7 µM [inhibitor, partial curve, poor fit]",–
CC(=O)N(/C=C1\SC(=S)N(c2ccccc2)C1=O)c1ccccc1,inactive,–
O=C(c1cccc(S(=O)(=O)N2CCc3ccccc32)c1)N1CCN(c2ccccn2)CC1,"inconclusive: 18.5 µM [inhibitor, single point]",–
COc1cc(-c2nc(S(=O)(=O)c3ccc(C)cc3)c(N3CCOCC3)o2)cc(OC)c1OC,"inconclusive: 0.0657 µM [inhibitor, full curve]",–
CCN(CC)C(=N)N1c2ccccc2CCC1C (centres undefined),"inconclusive: 0.0657 µM [inhibitor, full curve, poor fit]",–
CCN(CC)CCNC(=O)c1ccc(NC(=O)C2CCN(c3ncnc4sc(C)c(C)c34)CC2)cc1,"inconclusive: 11.7 µM [inhibitor, single point]",–
